Assay results taken from PubChem BioAssay AID1671190 (National Center for Advancing Translational Sciences (NCATS), 2021).
“And” between values parts separate entries of the source, which are not always exact repeats. Identical values can stand only once. The campaign covered roughly 580,000 compounds. About 6,100 (1.1%) were called active. Inconclusive means that the source gave no clear call. Such entries were picked first, then a sample of the others. Calls come from the whole dose curve; as a rule, active = well fitted inhibition curve with a large enough effect; inconclusive = small, poorly fitted or top-dose-only effect, or another doubt; inactive = no such curve, though single readings can be large or run the other way. A potency beside an inconclusive call is a rough fit, not a confirmed value.

Chains of the proteins cited; added tags and fusions are not shown.
UniProt P18054, whole entry, looked up: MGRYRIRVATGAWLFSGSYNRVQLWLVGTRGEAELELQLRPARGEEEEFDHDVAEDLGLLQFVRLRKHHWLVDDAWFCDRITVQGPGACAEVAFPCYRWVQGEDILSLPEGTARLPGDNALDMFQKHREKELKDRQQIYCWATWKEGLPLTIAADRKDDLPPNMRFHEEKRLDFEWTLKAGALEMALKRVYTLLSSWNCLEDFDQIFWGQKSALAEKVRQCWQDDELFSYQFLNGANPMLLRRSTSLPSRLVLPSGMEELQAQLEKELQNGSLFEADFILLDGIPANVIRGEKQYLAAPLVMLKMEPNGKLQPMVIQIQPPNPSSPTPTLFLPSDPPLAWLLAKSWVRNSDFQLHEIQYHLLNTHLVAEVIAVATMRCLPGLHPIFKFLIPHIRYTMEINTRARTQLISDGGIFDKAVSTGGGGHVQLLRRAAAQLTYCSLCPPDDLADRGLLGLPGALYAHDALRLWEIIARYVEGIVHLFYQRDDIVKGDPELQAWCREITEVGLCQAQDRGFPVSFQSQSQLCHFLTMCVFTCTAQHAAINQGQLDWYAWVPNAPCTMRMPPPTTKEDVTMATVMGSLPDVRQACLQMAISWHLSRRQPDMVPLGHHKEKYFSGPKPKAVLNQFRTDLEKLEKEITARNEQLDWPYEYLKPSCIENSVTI

Biological target: Polyunsaturated fatty acid lipoxygenase ALOX12 (Homo sapiens) (UniProt P18054)
Assay: Primary qHTS assay for inhibitors of human arachidonate 12S-lipoxygenase (ALOX12): Round 2
Conditions: purified 12hLO, xylenol orange hydroperoxide absorbance; series mostly up to 108 µM
Outline: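 Purified human 12hLO at 150 nM in 25 mM Hepes, 0.01% Triton X-100, pH 7.0, preincubated 15 min at room temperature with compound. Reaction started with 40 uM arachidonic acid, 30 min at room temperature. Hydroperoxide measured by Fe-xylenol orange, 573/405 nm absorbance ratio.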
Potency is the fitted concentration of half-maximal effect.

Row | SMILES | Potency
1 | O=C(Nc1cccc(Cl)c1N1CCCC1)c1cc2ccccc2o1 | inconclusive: 141 µM [inhibitor, single point]
2 | O=C(CSc1nc2cc(C(=O)O)ccc2c(=O)n1-c1ccc(F)cc1)Nc1ccc(F)c(F)c1F | inconclusive: 4.47 µM [inhibitor, full curve, poor fit]
3 | Cc1ccc(S(=O)(=O)N2CCC(N3CCC(C)CC3)CC2)cc1 | inconclusive: 4.47 µM [inhibitor, full curve, poor fit]
4 | O=C(Nc1ccccc1F)C(Cc1ccccc1)n1cccc1 (configuration not stated) | inconclusive: 31.6 µM [inhibitor, partial curve, poor fit]
5 | COCCCNc1nc2c(c(=O)n(C)c(=O)n2C)n1Cc1cccc(OC)c1 | inactive
6 | Fc1ccc(NCc2ccccc2F)cc1 | inconclusive: 31.6 µM [inhibitor, partial curve, poor fit]
7 | CNC(=O)[C@@H]1CNC[C@H]1c1nc(C)no1 | inactive
8 | CCCc1nc(C)cc(N2CCN(c3ccccc3)CC2)n1 | inconclusive: 31.6 µM [inhibitor, single point]
9 | COc1ccc(Cn2c(C(=O)O)c(CNCc3cccs3)c3ccc(C)cc32)cc1 | inconclusive: 56.2 µM [inhibitor, partial curve, poor fit]
10 | CCc1ccc(-n2c(O)c(C=NCCN(CC)CC)c(=O)[nH]c2=O)cc1 | inconclusive: 50.1 µM [inhibitor, partial curve, poor fit]
11 | O=[N+]([O-])c1cc(/C=N/O)ccc1SCc1ccccc1Cl | inconclusive: 0.794 µM [inhibitor, full curve, poor fit]
12 | Cc1ccc(S(=O)(=O)N(C)C)cc1NC(=S)Nc1ccc2cn[nH]c2c1 | inconclusive: 70.8 µM [inhibitor, partial curve, poor fit]
13 | N#Cc1cccc(OCC(=O)Nc2ccccc2C(=O)c2ccccc2)c1 | inactive
14 | COc1cccc(-c2cncnc2-n2ccnc2)c1 | inconclusive: 35.5 µM [inhibitor, partial curve, poor fit]
15 | C=CCn1c(N2CCN(c3ccc(OC)cc3)CC2)nc2c1c(=O)n(C)c(=O)n2C | inactive
16 | Cc1nnc(NC(=O)c2ccc(S(=O)(=O)N(C)c3ccccc3)cc2)s1 | inconclusive: 100 µM [inhibitor, single point]
17 | COc1cc(OC)c2c(c1O)OC(c1ccccc1)CC2=O (configuration not stated) | inconclusive: 50.1 µM [inhibitor, partial curve, poor fit]
18 | O=C(NC1CCCCC1)C(Nc1ccccc1)c1ccccc1F (configuration not stated) | inactive
19 | CCCCC(=O)N1CCC2(CC1)SCC(=O)N2c1ccc(Cl)cc1 | inactive
20 | Cc1ccccc1OCCOC(=O)c1c(-c2ccccc2)noc1C | inactive
21 | CCOc1ccc(NC(=O)CN2C(=O)S/C(=C/c3cccn3C)C2=O)cc1 | inconclusive: 70.8 µM [inhibitor, partial curve, poor fit]
22 | CCOc1ccccc1Oc1cn[nH]c1-c1ccc(OCC(=O)NN)cc1O | inactive
23 | Cc1cc(C)c(Nc2nn3c(=O)c4cc5c(cc4nc3s2)OCO5)c(C)c1 | inconclusive: 28.2 µM [inhibitor, partial curve, poor fit]

Row | SMILES | Potency
24 | CC(C)C[C@H]1CNC(=S)N1C[C@H]1CCCN1C[C@H](Cc1ccccc1)N1C[C@H](CC(C)C)N(CCc2ccccc2)C1=S | inconclusive: 35.5 µM [inhibitor, partial curve, poor fit]
25 | CCN(C=NC1=NN(c2cccc(C(F)(F)F)c2)CC1)CC | inconclusive: 11.2 µM [inhibitor, full curve]
26 | Cc1nc(N(C)C)ncc1C(=O)N1CCN(c2ccccc2C#N)CC1 | inactive
27 | Cc1ccc(SCc2[nH]nc3c2C(c2ccco2)C(C#N)=C(N)O3)cc1 (configuration not stated) | inactive
28 | Cc1ccc(S(=O)(=O)N/N=C2\C(=O)C3(C)CCC2C3(C)C)cc1 (configuration not stated) | inconclusive: 35.5 µM [inhibitor, partial curve, poor fit]
29 | COc1cc(-c2cc3nc(NC4CCCCC4)ccn3n2)cc(OC)c1OC | inactive
30 | O=C(Cc1ccccc1)NCc1nnc2n1C(C(=O)O)CC2 (configuration not stated) | inconclusive: 12.6 µM [inhibitor, full curve, poor fit]
31 | O=C(Cc1cccnc1)NC1CCN(c2cnn(CC3CC3)c(=O)c2)CC1 | inactive
32 | COc1ccc(-c2nc3c(s2)CN(C(C(=O)O)c2c[nH]c4cc(Cl)ccc24)CC3)cc1 (configuration not stated) | inconclusive: 50.1 µM [inhibitor, partial curve, poor fit]
33 | O=C(Nc1ccc(NC(=O)c2ccc3c(c2)OCCO3)cc1)c1ccccc1 | inactive
34 | CC(=O)NC1(C)CCN(Cc2cnc(-c3cccc(F)c3)s2)CC1 | active: 50.1 µM
35 | Cc1ccc2[nH]c3c(c2c1)CCCC3=O | inactive
36 | CN1CCCCCCN(C(=O)c2nccc3ccccc23)[C@H]2CCC[C@H]2C1=O | inactive
37 | COC(=O)c1ccc(Cl)c(NC(=O)c2cccc([N+](=O)[O-])c2C)c1 | inactive
38 | COc1ccc(N2CCN(C(=O)C3CCN(S(=O)(=O)c4cnc[nH]4)CC3)CC2)cc1 | inconclusive: 100 µM [inhibitor, partial curve, poor fit]
39 | COc1ccc(CC(=O)NC2CCCc3c2[nH]c2ccccc32)cc1 (configuration not stated) | inconclusive: 50.1 µM [inhibitor, single point]
40 | Cc1ccc(NC(=O)CCC(=O)NNS(=O)(=O)c2ccccc2)c(C)c1 | inactive
41 | COc1ccc(-c2c(C)oc3cc(OC(=O)C(C)C)ccc3c2=O)cc1OC | inactive
42 | CN(Cc1cnc2nc(N)nc(N)c2n1)c1ccc(C(=O)NC(CCC(=O)O)C(=O)O)cc1C(F)(F)F (configuration not stated) | inactive
43 | CCc1ccccc1Nc1nn2c(=O)c3ccc(C(=O)NCc4cccs4)cc3nc2s1 | inconclusive: 89.1 µM [inhibitor, partial curve, poor fit]
44 | O=C1CCN(S(=O)(=O)c2ccccc2)CCCN(C(=O)c2ccncc2)CCN1 | inconclusive: 25.1 µM [inhibitor, partial curve, poor fit]
45 | C/C=C/Cn1c(SC)nc2c1c(=O)[nH]c(=O)n2C | inconclusive: 50.1 µM [inhibitor, partial curve, poor fit] and inconclusive: 56.2 µM [inhibitor, partial curve, poor fit]
46 | O=S(=O)(c1ccccc1Br)N(Cc1ccccc1)CC(O)COCc1ccccc1 (configuration not stated) | inconclusive: 112 µM [inhibitor, partial curve, poor fit]

Row | SMILES | Potency
47 | O=C(c1cccc(F)c1)N1CCN(Cc2cccc(Br)c2)CC1 | inconclusive: 0.398 µM [inhibitor, full curve, poor fit]
48 | CN1CCN(C(c2ccc(F)cc2)c2sc3nc(-c4ccco4)nn3c2O)CC1 (configuration not stated) | inconclusive: 10 µM [inhibitor, full curve, poor fit]
49 | CCOC(=O)c1c(-c2ccccc2)csc1NC(=S)NC(=O)c1ccccc1 | inconclusive: 1.78 µM [inhibitor, full curve, poor fit]
50 | CCc1nc(NC(=O)Cn2nc3c(cc2=O)CCCC3)sc1C | inconclusive: 31.6 µM [inhibitor, full curve, poor fit]
51 | O=C(CS(=O)(=O)c1ccccc1)Nc1ncc([N+](=O)[O-])s1 | inconclusive: 1.41 µM [inhibitor, full curve, poor fit]
52 | CCCC[C@@H]1C=C(C(=O)O)[C@H](c2ccc(CC)cc2)N1S(=O)(=O)c1ccc(C)cc1 | inactive
53 | COC(=O)c1sc(S(=O)(=O)Nc2ccccc2Br)c(C(=O)OC)c1C | inactive
54 | COC(=O)c1c(C)[nH]c(C(=O)C(C)Cl)c1C (configuration not stated) | inconclusive: 63.1 µM [inhibitor, partial curve, poor fit]
55 | O=C(O)CCCC(=O)Nc1cccc2cccnc12 | inactive
56 | COc1ccc(C(=O)Nc2ccnn2C2CCN(C(C)=O)CC2)cc1 | inactive
57 | COc1cccc(NC(=O)Cn2c(CCC(=O)O)ccc2-c2cccs2)c1 | inconclusive: 100 µM [inhibitor, single point]
58 | CC1CC(C)(C)NC(=S)N1CCCC(=O)NCCc1ccc(Cl)cc1 (configuration not stated) | inconclusive: 50.1 µM [inhibitor, partial curve, poor fit]
59 | Cc1nc(-c2ccccc2)n(Cc2ccccc2Cl)c(=O)c1CCO | inconclusive: 15.8 µM [inhibitor, full curve, poor fit]
60 | CCOCCOC(=O)C1=C(C)NC2=C(C(=O)CC(c3cccs3)C2)C1c1ccsc1 (configuration not stated) | inactive
61 | COCCCNC(=O)CSc1ccc(C)cc1C | inconclusive: 100 µM [inhibitor, partial curve, poor fit]
62 | Cc1ccc(CN2CCCN(Cc3c(F)cccc3Cl)S2(=O)=O)cc1 | inconclusive: 7.94 µM [inhibitor, full curve, poor fit]
63 | O=C1NCc2ccccc2CC12CCN(Cc1ccc(-c3ccccc3)cc1)C2 (configuration not stated) | active: 39.8 µM
64 | CC(C)(C)OC(=O)[C@H](Cc1ccccc1)NC(=O)c1nc[nH]c1C(=O)N1CCN(c2ccccc2)CC1 | inactive
65 | CCC(C)(C)C1CCC2(CC1)NC(=S)N(c1ccccc1)N2 (configuration not stated) | inconclusive: 50.1 µM [inhibitor, partial curve, poor fit]
66 | CCCC(=O)NC(=S)c1c(C)n(C)n(-c2ccccc2)c1=O | inconclusive: 39.8 µM [inhibitor, partial curve, poor fit]
67 | Cc1cccc(NC(=O)CN2C(=O)NC(c3ccc(Cl)cc3)C3=C2COC3=O)c1C (configuration not stated) | inconclusive: 44.7 µM [inhibitor, partial curve, poor fit]
